Assay results from article PMC3024409.
These are yes or no findings as the source states them, for the method shown. Sequences can lack the tags named with a protein. Values belong to the binder of their own block, whether it stands above or below them.

What was measured:
Assay in all cases: condition: 5 µM untagged protein, 3 µM MBP-tagged protein; pull-down; 3 µM MBP-tagged bait and 5 µM untagged prey in 50 mM HEPES pH 7.5, 150 mM KCl; 10 min at room temperature, 1 h at 4°C with amylose resin; washed, eluted with 20 mM maltose; SDS-PAGE, Coomassie; both purified
[1] = target: T1, (MBP-)Dim2/Pno1 (S. cerevisiae), Q99216; conditions: remark: other sources report otherwise
T1 chain: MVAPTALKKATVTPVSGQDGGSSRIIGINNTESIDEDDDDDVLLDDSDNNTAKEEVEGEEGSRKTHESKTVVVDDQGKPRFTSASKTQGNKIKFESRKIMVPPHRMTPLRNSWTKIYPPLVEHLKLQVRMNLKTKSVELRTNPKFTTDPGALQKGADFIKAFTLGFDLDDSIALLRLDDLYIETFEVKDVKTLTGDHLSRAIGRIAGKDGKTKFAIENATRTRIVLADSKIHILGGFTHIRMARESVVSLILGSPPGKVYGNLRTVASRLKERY

[2] = target: T2, (MBP-)Tsr1 (S. cerevisiae), Q07381; conditions: remark: other sources report otherwise
T2 chain: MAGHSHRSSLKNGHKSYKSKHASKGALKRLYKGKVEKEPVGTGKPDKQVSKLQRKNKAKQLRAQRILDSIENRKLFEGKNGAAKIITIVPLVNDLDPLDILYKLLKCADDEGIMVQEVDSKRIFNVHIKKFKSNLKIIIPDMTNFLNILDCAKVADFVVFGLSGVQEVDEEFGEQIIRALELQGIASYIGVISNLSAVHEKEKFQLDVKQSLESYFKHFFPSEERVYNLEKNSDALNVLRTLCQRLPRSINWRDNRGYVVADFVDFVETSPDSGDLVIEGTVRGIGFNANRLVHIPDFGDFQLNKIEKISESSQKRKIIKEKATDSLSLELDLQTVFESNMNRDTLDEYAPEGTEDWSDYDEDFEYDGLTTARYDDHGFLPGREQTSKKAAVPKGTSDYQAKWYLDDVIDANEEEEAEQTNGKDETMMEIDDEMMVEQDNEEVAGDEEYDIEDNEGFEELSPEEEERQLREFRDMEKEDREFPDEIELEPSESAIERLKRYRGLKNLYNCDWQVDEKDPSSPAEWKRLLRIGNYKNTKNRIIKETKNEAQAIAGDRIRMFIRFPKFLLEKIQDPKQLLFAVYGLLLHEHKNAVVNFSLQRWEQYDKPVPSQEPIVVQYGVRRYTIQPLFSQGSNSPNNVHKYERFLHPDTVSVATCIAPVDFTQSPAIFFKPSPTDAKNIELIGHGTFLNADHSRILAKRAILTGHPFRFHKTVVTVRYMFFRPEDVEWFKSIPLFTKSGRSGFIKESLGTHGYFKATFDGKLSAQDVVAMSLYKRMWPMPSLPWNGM

[3] = target: (MBP-)Dim1 (S. cerevisiae), P41819; conditions: remark: other sources report otherwise
[4] = target: T3, (MBP-)Nob1 (S. cerevisiae), Q08444; conditions: remark: other sources report otherwise
T3 chain: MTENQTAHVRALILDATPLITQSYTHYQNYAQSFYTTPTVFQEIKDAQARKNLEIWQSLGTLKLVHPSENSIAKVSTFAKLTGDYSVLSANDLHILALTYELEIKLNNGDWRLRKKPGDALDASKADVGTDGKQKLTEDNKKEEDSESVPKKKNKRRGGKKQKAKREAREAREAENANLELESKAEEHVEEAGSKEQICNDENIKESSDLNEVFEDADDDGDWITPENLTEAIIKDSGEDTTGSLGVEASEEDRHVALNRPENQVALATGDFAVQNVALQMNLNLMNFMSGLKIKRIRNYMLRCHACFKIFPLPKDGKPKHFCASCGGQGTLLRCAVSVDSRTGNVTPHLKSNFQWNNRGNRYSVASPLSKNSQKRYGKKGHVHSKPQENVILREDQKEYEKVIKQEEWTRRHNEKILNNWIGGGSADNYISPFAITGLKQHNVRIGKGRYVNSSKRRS

[5] = target: T4, (MBP-)Rps3 (S. cerevisiae), P05750; conditions: remark: other sources report otherwise
T4 chain: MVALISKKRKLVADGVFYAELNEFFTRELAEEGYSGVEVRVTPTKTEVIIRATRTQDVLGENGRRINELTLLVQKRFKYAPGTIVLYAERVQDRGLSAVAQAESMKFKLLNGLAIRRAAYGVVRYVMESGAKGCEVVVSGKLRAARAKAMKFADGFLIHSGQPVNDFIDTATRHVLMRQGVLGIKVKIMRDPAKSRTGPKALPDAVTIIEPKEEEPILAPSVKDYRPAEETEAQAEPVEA

[6] = target: T5, (MBP-)Rps15 (S. cerevisiae) (UniProt Q01855)
T5 sequence: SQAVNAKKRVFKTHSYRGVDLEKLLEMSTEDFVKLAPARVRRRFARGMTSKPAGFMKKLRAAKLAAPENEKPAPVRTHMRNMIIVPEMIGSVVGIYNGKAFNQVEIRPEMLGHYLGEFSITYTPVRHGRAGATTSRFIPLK

[7] = target: T6, (MBP-)Rps5 (S. cerevisiae) (UniProt P26783)
T6 sequence: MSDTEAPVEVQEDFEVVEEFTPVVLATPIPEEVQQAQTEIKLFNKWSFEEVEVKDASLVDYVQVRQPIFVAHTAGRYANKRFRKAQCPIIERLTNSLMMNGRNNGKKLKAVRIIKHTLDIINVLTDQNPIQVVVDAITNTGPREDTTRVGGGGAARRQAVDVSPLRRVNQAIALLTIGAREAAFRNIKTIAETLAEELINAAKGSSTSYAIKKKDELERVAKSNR

binding [1]: no binding
binding [2]: no binding
B1: Dim1 (untagged), P41819 1-318 (enzyme)
chain: MGKAAKKKYSGATSSKQVSAEKHLSSVFKFNTDLGQHILKNPLVAQGIVDKAQIRPSDVVLEVGPGTGNLTVRILEQAKNVVAVEMDPRMAAELTKRVRGTPVEKKLEIMLGDFMKTELPYFDICISNTPYQISSPLVFKLINQPRPPRVSILMFQREFALRLLARPGDSLYCRLSANVQMWANVTHIMKVGKNNFRPPPQVESSVVRLEIKNPRPQVDYNEWDGLLRIVFVRKNRTISAGFKSTTVMDILEKNYKTFLAMNNEMVDDTKGSMHDVVKEKIDTVLKETDLGDKRAGKCDQNDFLRLLYAFHQVGIHFS

binding [3]: no binding
binding [4]: no binding
binding [5]: no binding
B2: Tsr1 (untagged), Q07381 1-788 (protein)
chain: MAGHSHRSSLKNGHKSYKSKHASKGALKRLYKGKVEKEPVGTGKPDKQVSKLQRKNKAKQLRAQRILDSIENRKLFEGKNGAAKIITIVPLVNDLDPLDILYKLLKCADDEGIMVQEVDSKRIFNVHIKKFKSNLKIIIPDMTNFLNILDCAKVADFVVFGLSGVQEVDEEFGEQIIRALELQGIASYIGVISNLSAVHEKEKFQLDVKQSLESYFKHFFPSEERVYNLEKNSDALNVLRTLCQRLPRSINWRDNRGYVVADFVDFVETSPDSGDLVIEGTVRGIGFNANRLVHIPDFGDFQLNKIEKISESSQKRKIIKEKATDSLSLELDLQTVFESNMNRDTLDEYAPEGTEDWSDYDEDFEYDGLTTARYDDHGFLPGREQTSKKAAVPKGTSDYQAKWYLDDVIDANEEEEAEQTNGKDETMMEIDDEMMVEQDNEEVAGDEEYDIEDNEGFEELSPEEEERQLREFRDMEKEDREFPDEIELEPSESAIERLKRYRGLKNLYNCDWQVDEKDPSSPAEWKRLLRIGNYKNTKNRIIKETKNEAQAIAGDRIRMFIRFPKFLLEKIQDPKQLLFAVYGLLLHEHKNAVVNFSLQRWEQYDKPVPSQEPIVVQYGVRRYTIQPLFSQGSNSPNNVHKYERFLHPDTVSVATCIAPVDFTQSPAIFFKPSPTDAKNIELIGHGTFLNADHSRILAKRAILTGHPFRFHKTVVTVRYMFFRPEDVEWFKSIPLFTKSGRSGFIKESLGTHGYFKATFDGKLSAQDVVAMSLYKRMWPMPSLPWNGM

binding [6]: no binding
binding [7]: no binding
B3: Tsr1 (untagged) (protein, UniProt Q07381 1-788)
chain: MAGHSHRSSLKNGHKSYKSKHASKGALKRLYKGKVEKEPVGTGKPDKQVSKLQRKNKAKQLRAQRILDSIENRKLFEGKNGAAKIITIVPLVNDLDPLDILYKLLKCADDEGIMVQEVDSKRIFNVHIKKFKSNLKIIIPDMTNFLNILDCAKVADFVVFGLSGVQEVDEEFGEQIIRALELQGIASYIGVISNLSAVHEKEKFQLDVKQSLESYFKHFFPSEERVYNLEKNSDALNVLRTLCQRLPRSINWRDNRGYVVADFVDFVETSPDSGDLVIEGTVRGIGFNANRLVHIPDFGDFQLNKIEKISESSQKRKIIKEKATDSLSLELDLQTVFESNMNRDTLDEYAPEGTEDWSDYDEDFEYDGLTTARYDDHGFLPGREQTSKKAAVPKGTSDYQAKWYLDDVIDANEEEEAEQTNGKDETMMEIDDEMMVEQDNEEVAGDEEYDIEDNEGFEELSPEEEERQLREFRDMEKEDREFPDEIELEPSESAIERLKRYRGLKNLYNCDWQVDEKDPSSPAEWKRLLRIGNYKNTKNRIIKETKNEAQAIAGDRIRMFIRFPKFLLEKIQDPKQLLFAVYGLLLHEHKNAVVNFSLQRWEQYDKPVPSQEPIVVQYGVRRYTIQPLFSQGSNSPNNVHKYERFLHPDTVSVATCIAPVDFTQSPAIFFKPSPTDAKNIELIGHGTFLNADHSRILAKRAILTGHPFRFHKTVVTVRYMFFRPEDVEWFKSIPLFTKSGRSGFIKESLGTHGYFKATFDGKLSAQDVVAMSLYKRMWPMPSLPWNGM
